{
  "source": "the supplement of paper PMC8728848",
  "binders": {"B1": {"name": "CD4 (Rattus norvegicus), P05540 (protein)", "chain": "MCRGFSFRHLLPLLLLQLSKLLVVTQGSTSITAYKSEGESAEFSFPLNLGEESLQGELRWKAEKAPSSQSWITFSLKNQKVSVQKSTSNPKFQLSETLPLTLQIPQVSLQFAGSGNLTLTLDRGILYQEVNLVVMKVTQPDSNTLTCEVMGPTSPKMRLILKQENQEARVSRQEKVIQVQAPEAGVWQCLLSEGEEVKMDSKIQVLSKGLNSGGGSGGGTGGGDLAPQMLRELQETNAALQDVRELLRQQVKEITFLKNTVMECDACGLDRNLPPLAPLGPHPETLVKVKDAEDQLGARVGYIELDLNSGKILESFRPEERFPMMSTFKVLLCGAVLSRIDAGQEQLGRRIHYSQNDLVEYSPVTEKHLTDGMTVRELCSAAITMSDNTAANLLLTTIGGPKELTAFLHNMGDHVTRLDRWEPELNEAIPNDERDTTMPVAMATTLRKLLTGELLTLASRQQLIDWMEADKVAGPLLRSALPAGWFIADKSGAGERGSRGIIAALGPDGKPSRIVVIYTTGSQATMDERNRQIAEIGASLIKHW"}},
  "test_in_all_cases": "glycan array binding signal (z-score within array); higher = stronger binding",
  "conditions_in_all_cases": "glycan notation: IUPAC condensed, linker removed",
  "key": {"[1]": {"biological_target": "Fuc(a1-2)[Gal(a1-3)]Gal(b1-4)GlcNAc(b1-2)Man(a1-3)[Fuc(a1-2)[Gal(a1-3)]Gal(b1-4)GlcNAc(b1-2)Man(a1-6)]Man(b1-4)GlcNAc(b1-4)GlcNAc", "how_it_was_run": "(§1)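 Negative Z-scores can be read as non-binding. The Z-score is calculated within each array and then averaged across arrays of one protein sequence at different concentrations or buffers and across linkers. Arrays, 3228 in all, were curated from the Consortium for Functional Glycomics database and kept only where the protein sequence was available.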"}, "[2]": {"biological_target": "Fuc(a1-2)[Gal(a1-3)]Gal(b1-4)GlcNAc(b1-2)Man(a1-3)[Fuc(a1-2)[Gal(a1-3)]Gal(b1-4)GlcNAc(b1-2)Man(a1-6)]Man(b1-4)GlcNAc(b1-4)[Fuc(a1-6)]GlcNAc", "how_it_was_run": "as §1"}, "[3]": {"biological_target": "Fuc(a1-2)[Gal(a1-3)]Gal(b1-4)GlcNAc(b1-3)GalNAc", "how_it_was_run": "as §1"}, "[4]": {"biological_target": "Fuc(a1-2)[Gal(a1-3)]Gal(b1-4)GlcNAc(b1-6)GalNAc", "how_it_was_run": "as §1"}, "[5]": {"biological_target": "Fuc(a1-2)[Gal(a1-3)]Gal(b1-4)[Fuc(a1-3)]Glc", "how_it_was_run": "as §1"}, "[6]": {"biological_target": "Fuc(a1-2)[Gal(a1-3)]Gal(b1-4)[Fuc(a1-3)]GlcNAc", "how_it_was_run": "as §1"}, "[7]": {"biological_target": "Fuc(a1-2)[Gal(a1-3)]Gal(b1-4)[Fuc(a1-3)]GlcNAc(b1-3)GalNAc", "how_it_was_run": "as §1"}, "[8]": {"biological_target": "Fuc(a1-2)[Gal(a1-4)]Gal(b1-4)GlcNAc", "how_it_was_run": "as §1"}, "[9]": {"biological_target": "Fuc(a1-2)[GalNAc(a1-3)]Gal", "how_it_was_run": "as §1"}, "[10]": {"biological_target": "Fuc(a1-2)[GalNAc(a1-3)]Gal(b1-3)GalNAc(a1-3)[Fuc(a1-2)]Gal(b1-4)GlcNAc", "how_it_was_run": "as §1"}, "[11]": {"biological_target": "Fuc(a1-2)[GalNAc(a1-3)]Gal(b1-3)GalNAc(b1-3)Gal(a1-4)Gal(b1-4)Glc", "how_it_was_run": "as §1"}, "[12]": {"biological_target": "Fuc(a1-2)[GalNAc(a1-3)]Gal(b1-3)GlcNAc", "how_it_was_run": "as §1"}, "[13]": {"biological_target": "Fuc(a1-2)[GalNAc(a1-3)]Gal(b1-3)GlcNAc(b1-2)Man(a1-3)[Fuc(a1-2)[GalNAc(a1-3)]Gal(b1-3)GlcNAc(b1-2)Man(a1-6)]Man(b1-4)GlcNAc(b1-4)GlcNAc", "how_it_was_run": "as §1"}, "[14]": {"biological_target": "Fuc(a1-2)[GalNAc(a1-3)]Gal(b1-3)GlcNAc(b1-2)Man(a1-3)[Fuc(a1-2)[GalNAc(a1-3)]Gal(b1-3)GlcNAc(b1-2)Man(a1-6)]Man(b1-4)GlcNAc(b1-4)[Fuc(a1-6)]GlcNAc", "how_it_was_run": "as §1"}, "[15]": {"biological_target": "Fuc(a1-2)[GalNAc(a1-3)]Gal(b1-3)GlcNAc(b1-3)GalNAc", "how_it_was_run": "as §1"}, "[16]": {"biological_target": "Fuc(a1-2)[GalNAc(a1-3)]Gal(b1-3)GlcNAc(b1-6)GalNAc", "how_it_was_run": "as §1"}, "[17]": {"biological_target": "Fuc(a1-2)[GalNAc(a1-3)]Gal(b1-4)Glc", "how_it_was_run": "as §1"}, "[18]": {"biological_target": "Fuc(a1-2)[GalNAc(a1-3)]Gal(b1-4)GlcNAc", "how_it_was_run": "as §1"}, "[19]": {"biological_target": "Fuc(a1-2)[GalNAc(a1-3)]Gal(b1-4)GlcNAc(b1-2)Man", "how_it_was_run": "as §1"}, "[20]": {"biological_target": "Fuc(a1-2)[GalNAc(a1-3)]Gal(b1-4)GlcNAc(b1-2)Man(a1-3)[Fuc(a1-2)[GalNAc(a1-3)]Gal(b1-4)GlcNAc(b1-2)Man(a1-6)]Man(b1-4)GlcNAc(b1-4)GlcNAc", "how_it_was_run": "as §1"}, "[21]": {"biological_target": "Fuc(a1-2)[GalNAc(a1-3)]Gal(b1-4)GlcNAc(b1-2)Man(a1-3)[Fuc(a1-2)[GalNAc(a1-3)]Gal(b1-4)GlcNAc(b1-2)Man(a1-6)]Man(b1-4)GlcNAc(b1-4)[Fuc(a1-6)]GlcNAc", "how_it_was_run": "as §1"}, "[22]": {"biological_target": "Fuc(a1-2)[GalNAc(a1-3)]Gal(b1-4)GlcNAc(b1-3)Gal(b1-4)GlcNAc", "how_it_was_run": "as §1"}, "[23]": {"biological_target": "Fuc(a1-2)[GalNAc(a1-3)]Gal(b1-4)GlcNAc(b1-3)Gal(b1-4)GlcNAc(b1-3)Gal(b1-4)GlcNAc", "how_it_was_run": "as §1"}, "[24]": {"biological_target": "Fuc(a1-2)[GalNAc(a1-3)]Gal(b1-4)GlcNAc(b1-3)GalNAc", "how_it_was_run": "as §1"}, "[25]": {"biological_target": "Fuc(a1-2)[GalNAc(a1-3)]Gal(b1-4)GlcNAc(b1-3)[Fuc(a1-2)[GalNAc(a1-3)]Gal(b1-4)GlcNAc(b1-6)]GalNAc", "how_it_was_run": "as §1"}, "[26]": {"biological_target": "Fuc(a1-2)[GalNAc(a1-3)]Gal(b1-4)GlcNAc(b1-6)GalNAc", "how_it_was_run": "as §1"}, "[27]": {"biological_target": "Fuc(a1-2)[GalNAc(a1-3)]Gal(b1-4)[Fuc(a1-3)]GlcNAc", "how_it_was_run": "as §1"}, "[28]": {"biological_target": "Fuc(a1-2)[GalNAc(a1-3)]Gal(b1-4)[Fuc(a1-3)]GlcNAc(b1-3)GalNAc", "how_it_was_run": "as §1"}, "[29]": {"biological_target": "Fuc(a1-2)[GalNAc(a1-4)]Gal(b1-4)GlcNAc", "how_it_was_run": "as §1"}, "[30]": {"biological_target": "Fuc(a1-2)[GalNAc(b1-3)]Gal", "how_it_was_run": "as §1"}},
  "note": "The other results are listed elsewhere or left out.",
  "data": [
    {"binder": "B1", "values": [
      {"measurement": "glycan array binding signal (z-score)", "setting": "[1]", "value": 1.57},
      {"measurement": "glycan array binding signal (z-score)", "setting": "[2]", "value": 1.22},
      {"measurement": "glycan array binding signal (z-score)", "setting": "[3]", "value": -0.617},
      {"measurement": "glycan array binding signal (z-score)", "setting": "[4]", "value": 0.27},
      {"measurement": "glycan array binding signal (z-score)", "setting": "[5]", "value": 0.448},
      {"measurement": "glycan array binding signal (z-score)", "setting": "[6]", "value": 2.36},
      {"measurement": "glycan array binding signal (z-score)", "setting": "[7]", "value": -0.228},
      {"measurement": "glycan array binding signal (z-score)", "setting": "[8]", "value": 1.9},
      {"measurement": "glycan array binding signal (z-score)", "setting": "[9]", "value": -0.738},
      {"measurement": "glycan array binding signal (z-score)", "setting": "[10]", "value": -0.508},
      {"measurement": "glycan array binding signal (z-score)", "setting": "[11]", "value": -1.25},
      {"measurement": "glycan array binding signal (z-score)", "setting": "[12]", "value": -0.217},
      {"measurement": "glycan array binding signal (z-score)", "setting": "[13]", "value": 1.82},
      {"measurement": "glycan array binding signal (z-score)", "setting": "[14]", "value": -0.564},
      {"measurement": "glycan array binding signal (z-score)", "setting": "[15]", "value": 2.41},
      {"measurement": "glycan array binding signal (z-score)", "setting": "[16]", "value": 0.082},
      {"measurement": "glycan array binding signal (z-score)", "setting": "[17]", "value": 0.566},
      {"measurement": "glycan array binding signal (z-score)", "setting": "[18]", "value": -0.98},
      {"measurement": "glycan array binding signal (z-score)", "setting": "[19]", "value": -0.121},
      {"measurement": "glycan array binding signal (z-score)", "setting": "[20]", "value": 0.34},
      {"measurement": "glycan array binding signal (z-score)", "setting": "[21]", "value": -0.059},
      {"measurement": "glycan array binding signal (z-score)", "setting": "[22]", "value": -0.594},
      {"measurement": "glycan array binding signal (z-score)", "setting": "[23]", "value": 3.72},
      {"measurement": "glycan array binding signal (z-score)", "setting": "[24]", "value": -0.665},
      {"measurement": "glycan array binding signal (z-score)", "setting": "[25]", "value": -0.902},
      {"measurement": "glycan array binding signal (z-score)", "setting": "[26]", "value": 0.037},
      {"measurement": "glycan array binding signal (z-score)", "setting": "[27]", "value": 2.67},
      {"measurement": "glycan array binding signal (z-score)", "setting": "[28]", "value": 1},
      {"measurement": "glycan array binding signal (z-score)", "setting": "[29]", "value": -1.04},
      {"measurement": "glycan array binding signal (z-score)", "setting": "[30]", "value": 1.89}
    ]}
  ]
}
